The values below come from article PMC7608443.

Amino acid sequences for entries named in this document (tags omitted).
UniProt P35991: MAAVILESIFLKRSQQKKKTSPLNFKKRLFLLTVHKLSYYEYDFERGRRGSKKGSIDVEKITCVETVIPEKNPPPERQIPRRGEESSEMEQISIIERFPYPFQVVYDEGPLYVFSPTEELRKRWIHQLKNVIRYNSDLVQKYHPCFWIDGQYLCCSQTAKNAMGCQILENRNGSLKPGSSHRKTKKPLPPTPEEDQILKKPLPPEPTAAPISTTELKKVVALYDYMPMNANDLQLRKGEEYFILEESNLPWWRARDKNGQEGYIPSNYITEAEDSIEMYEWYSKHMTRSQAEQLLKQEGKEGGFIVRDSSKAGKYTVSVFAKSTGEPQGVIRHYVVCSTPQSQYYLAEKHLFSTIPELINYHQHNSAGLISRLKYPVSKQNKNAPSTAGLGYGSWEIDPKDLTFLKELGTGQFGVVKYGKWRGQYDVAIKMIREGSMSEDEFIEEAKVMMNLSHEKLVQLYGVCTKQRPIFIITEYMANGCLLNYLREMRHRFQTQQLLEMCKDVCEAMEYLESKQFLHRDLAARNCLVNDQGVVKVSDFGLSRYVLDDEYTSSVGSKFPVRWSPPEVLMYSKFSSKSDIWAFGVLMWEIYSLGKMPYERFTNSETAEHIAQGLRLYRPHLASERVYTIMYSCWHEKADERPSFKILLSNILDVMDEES
UniProt P43404: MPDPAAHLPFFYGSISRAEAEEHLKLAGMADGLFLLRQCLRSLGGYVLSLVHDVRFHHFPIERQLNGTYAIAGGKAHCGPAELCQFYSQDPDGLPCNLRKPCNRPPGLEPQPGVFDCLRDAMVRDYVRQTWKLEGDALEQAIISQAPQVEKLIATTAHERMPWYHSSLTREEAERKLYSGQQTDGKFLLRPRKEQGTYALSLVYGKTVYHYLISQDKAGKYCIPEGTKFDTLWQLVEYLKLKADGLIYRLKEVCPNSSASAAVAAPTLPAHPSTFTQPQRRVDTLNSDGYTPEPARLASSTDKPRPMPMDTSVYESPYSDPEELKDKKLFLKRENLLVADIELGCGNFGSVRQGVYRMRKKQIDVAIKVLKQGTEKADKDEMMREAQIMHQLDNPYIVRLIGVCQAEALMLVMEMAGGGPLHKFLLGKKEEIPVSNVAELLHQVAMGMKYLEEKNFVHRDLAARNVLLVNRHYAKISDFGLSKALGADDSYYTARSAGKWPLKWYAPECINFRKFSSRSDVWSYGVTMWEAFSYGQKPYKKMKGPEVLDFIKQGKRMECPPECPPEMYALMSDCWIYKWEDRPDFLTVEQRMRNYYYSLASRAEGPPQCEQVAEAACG

No constants are given. Whether binding was seen depends on the method and setting. Binding seen in cells or lysates may run through a third protein. Some entries that bind do so weakly or less than the wild type. For part of these data: Tags and fused reporters may be left off the sequences shown.

For one test, the target named is T1, Flag-tagged PLCγ1 (UniProt Q62077).
T1 sequence: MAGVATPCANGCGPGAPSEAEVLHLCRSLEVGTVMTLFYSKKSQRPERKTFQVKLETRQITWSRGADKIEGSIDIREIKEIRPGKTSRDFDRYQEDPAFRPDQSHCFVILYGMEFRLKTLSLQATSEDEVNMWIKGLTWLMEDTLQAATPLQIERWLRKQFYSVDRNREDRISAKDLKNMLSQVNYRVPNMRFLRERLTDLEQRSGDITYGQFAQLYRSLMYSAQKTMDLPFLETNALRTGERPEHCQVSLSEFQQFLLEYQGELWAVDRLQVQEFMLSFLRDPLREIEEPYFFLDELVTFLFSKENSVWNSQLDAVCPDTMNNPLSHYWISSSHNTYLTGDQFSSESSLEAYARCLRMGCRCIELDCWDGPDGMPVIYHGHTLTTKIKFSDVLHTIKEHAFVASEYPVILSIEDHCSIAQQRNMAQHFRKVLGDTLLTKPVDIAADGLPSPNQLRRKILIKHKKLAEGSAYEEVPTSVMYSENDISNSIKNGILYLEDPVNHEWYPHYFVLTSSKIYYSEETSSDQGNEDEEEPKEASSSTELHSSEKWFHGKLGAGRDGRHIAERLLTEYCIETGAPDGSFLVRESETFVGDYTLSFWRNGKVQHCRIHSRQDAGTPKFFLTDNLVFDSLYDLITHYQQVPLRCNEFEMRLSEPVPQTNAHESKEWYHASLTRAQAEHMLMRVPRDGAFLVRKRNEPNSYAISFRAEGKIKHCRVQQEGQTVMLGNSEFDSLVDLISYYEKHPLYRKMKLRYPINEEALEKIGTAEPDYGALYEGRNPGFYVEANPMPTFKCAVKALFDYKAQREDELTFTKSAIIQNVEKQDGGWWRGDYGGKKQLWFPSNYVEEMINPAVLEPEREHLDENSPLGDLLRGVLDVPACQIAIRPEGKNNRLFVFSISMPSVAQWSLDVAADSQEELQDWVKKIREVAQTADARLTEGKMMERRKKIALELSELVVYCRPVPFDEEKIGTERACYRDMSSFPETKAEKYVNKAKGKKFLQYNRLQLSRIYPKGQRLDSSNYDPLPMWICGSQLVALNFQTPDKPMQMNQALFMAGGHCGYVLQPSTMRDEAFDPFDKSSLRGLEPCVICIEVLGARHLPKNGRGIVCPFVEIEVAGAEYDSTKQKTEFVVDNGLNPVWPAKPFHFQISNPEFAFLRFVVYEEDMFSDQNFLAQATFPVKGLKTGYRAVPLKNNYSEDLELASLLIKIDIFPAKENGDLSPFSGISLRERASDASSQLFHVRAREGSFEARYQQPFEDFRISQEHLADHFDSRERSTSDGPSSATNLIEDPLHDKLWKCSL
The test is described as follows: co-IP; BTK-HA overexpressed in 293T cells with a Flag-tagged partner; immunoprecipitation with a Flag antibody, immunoblot; in the absence of TCR signaling.

Test [1] has as its target Bruton's tyrosine kinase (BTK), endogenous in CD4+ T cells (mouse (endogenous in CD4+ T cells)) (UniProt P35991). The test is described as follows: co-IP; endogenous proteins; CD4+ T cells with or without TCR engagement (plate-bound anti-CD3 plus CD28); lysates immunoprecipitated with an anti-BTK antibody, immunoblot.

On to “BTK-HA (Bruton's tyrosine kinase, HA-tagged) (from UniProt P35991 1-659)”, for which, in the test with Flag-tagged PLCγ1, the binding entry is on record as “binds”.

In the case of “ZAP70, endogenous in CD4+ T cells (from UniProt P43404 1-618)”, the binding result in test [1] is “no binding”.

B1: LAT, endogenous in CD4+ T cells (protein, UniProt O54957 1-242)
chain: MEADALSPVGLGLLLLPFLVTLLAALCVRCRELPVSYDSTSTESLYPRSILIKPPQITVPRTPAVSYPLVTSFPPLRQPDLLPIPRSPQPLGGSHRMPSSQQNSDDANSVASYENQEPACKNVDADEDEDDYPNGYLVVLPDSSPAAVPVVSSAPVPSNPDLGDSAFSVESCEDYVNVPESEESAEASLDGSREYVNVSPEQQPVTRAELASVNSQEVEDEGEEEGVDGEEAPDYENLQELN
For B1, the binding entry in test [1] is “no binding”.
